Among the data in publication PMC5122416 are binding values, retold here.

Amino acid sequences for entries named in this document (tags omitted).
UniProt O94953: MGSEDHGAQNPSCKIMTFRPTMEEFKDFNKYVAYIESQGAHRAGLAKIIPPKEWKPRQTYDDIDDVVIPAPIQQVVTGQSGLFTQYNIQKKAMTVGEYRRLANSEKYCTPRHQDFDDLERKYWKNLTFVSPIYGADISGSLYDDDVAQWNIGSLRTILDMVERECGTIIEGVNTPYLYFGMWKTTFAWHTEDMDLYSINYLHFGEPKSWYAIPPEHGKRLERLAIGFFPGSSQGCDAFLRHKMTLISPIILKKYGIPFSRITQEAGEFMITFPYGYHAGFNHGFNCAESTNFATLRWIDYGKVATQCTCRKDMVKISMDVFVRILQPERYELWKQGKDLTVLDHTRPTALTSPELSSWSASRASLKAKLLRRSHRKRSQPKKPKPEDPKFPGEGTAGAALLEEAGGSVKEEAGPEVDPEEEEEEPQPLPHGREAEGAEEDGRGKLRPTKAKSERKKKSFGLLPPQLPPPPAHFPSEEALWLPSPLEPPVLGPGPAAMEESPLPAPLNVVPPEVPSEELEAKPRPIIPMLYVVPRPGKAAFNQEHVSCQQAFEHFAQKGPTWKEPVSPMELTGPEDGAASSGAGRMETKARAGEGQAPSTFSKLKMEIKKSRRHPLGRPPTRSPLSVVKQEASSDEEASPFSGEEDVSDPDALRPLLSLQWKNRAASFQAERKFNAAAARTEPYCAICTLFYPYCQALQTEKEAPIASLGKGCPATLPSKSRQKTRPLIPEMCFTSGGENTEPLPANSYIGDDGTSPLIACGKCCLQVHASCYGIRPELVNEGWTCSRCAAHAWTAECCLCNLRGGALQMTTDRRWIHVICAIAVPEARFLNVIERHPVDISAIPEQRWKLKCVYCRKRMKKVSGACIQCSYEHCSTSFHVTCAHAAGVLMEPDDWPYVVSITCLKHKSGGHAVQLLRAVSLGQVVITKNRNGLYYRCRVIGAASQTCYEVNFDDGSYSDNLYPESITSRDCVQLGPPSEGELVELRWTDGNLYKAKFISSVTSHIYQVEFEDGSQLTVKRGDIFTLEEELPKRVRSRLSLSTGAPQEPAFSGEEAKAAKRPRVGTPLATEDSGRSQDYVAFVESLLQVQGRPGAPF
UniProt Q04206: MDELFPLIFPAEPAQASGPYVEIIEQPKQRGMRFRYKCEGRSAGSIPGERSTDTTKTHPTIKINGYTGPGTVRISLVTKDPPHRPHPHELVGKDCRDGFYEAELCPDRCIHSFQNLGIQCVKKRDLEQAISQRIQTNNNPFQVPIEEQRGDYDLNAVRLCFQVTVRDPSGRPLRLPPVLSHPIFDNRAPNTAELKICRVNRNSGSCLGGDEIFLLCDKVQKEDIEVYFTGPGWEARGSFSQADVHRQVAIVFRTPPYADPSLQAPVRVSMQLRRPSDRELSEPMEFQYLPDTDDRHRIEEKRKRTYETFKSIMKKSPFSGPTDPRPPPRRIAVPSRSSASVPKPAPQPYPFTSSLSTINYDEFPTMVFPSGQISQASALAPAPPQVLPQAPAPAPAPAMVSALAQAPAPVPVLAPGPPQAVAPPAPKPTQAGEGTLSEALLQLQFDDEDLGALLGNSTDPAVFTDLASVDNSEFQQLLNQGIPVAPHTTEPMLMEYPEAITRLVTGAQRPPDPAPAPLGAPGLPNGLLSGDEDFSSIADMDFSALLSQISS

The target of this experiment is JMJD2B (human (endogenous in AGS and GES-1)) (UniProt O94953). As to the kind of experiment: co-IP; AGS and GES-1 cells infected with H. pylori, lysed in RIPA buffer; immunoprecipitated with anti-JMJD2B antibody and protein G PLUS-Agarose beads at 4°C; p65 detected by Western blot.

Results are given in words; binding and its absence hold for the method and conditions named. In cells and extracts the contact can be indirect. Some binding calls cover weakened binding; strength is not graded here.

For NF-κB (p65) (from UniProt Q04206 1-551), the binding result is reported as “binds”.
